This is one part of the list. The main result of the screen is listed elsewhere. These columns were measured beside it and carry no call. Compounds called inactive in the main read-out are mostly missing here. The note in brackets gives the kind of curve behind each potency; many fits are weak.
Assay: qHTS Assay for Identifying the Cell-Membrane Permeable IMPase Inhibitors
Details: CHO-M1 cells, IP1 accumulation, HTRF TR-FRET ratio; measured here: donor channel 620 nm AC50

Question: Which AC50 does the source give for CCC(=O)N1C(=O)CCN(C(C)=O)c2ccccc21 here?
Answer: 158 nM [falling, full curve]

Question: With CCn1c(SCC(=O)Nc2cc(C)on2)nnc1-c1ccccc1 as the compound, how does the AC50 read?
Answer: 158 nM [rising, full curve, poor fit]

Question: Which AC50 does the source give for Cc1ccc(C(=O)c2c[nH]cc2-c2ccccc2)cc1 here?
Answer: 794 nM [falling, full curve]

Question: For COc1ccc(-c2cc(C(F)(F)F)c(C#N)c(SCC(=O)Nc3nc(C)co3)n2)cc1, which AC50 is on record?
Answer: 2000 nM [rising, full curve, poor fit]

Question: With Cc1n[nH]c(C)c1S(=O)(=O)N1CCCC(C(=O)N2CCN(c3ccc(Cl)cc3)CC2)C1 (stereo unspecified) as the compound, how does the AC50 read?
Answer: 12600 nM [falling, single point]

Question: For O=C(c1ccccn1)c1conc1C(=O)c1ccc(Br)cc1, which AC50 is on record?
Answer: 39.8 nM [rising, full curve, poor fit]

Question: Which AC50 does the source give for CCOC(=O)c1ccc(N2CN=C3SCC(=O)N3C2)cc1 here?
Answer: 794 nM [falling, full curve, poor fit]

Question: Which AC50 does the source give for CCNC(=S)N/N=C/c1cccs1 here?
Answer: 10000 nM [falling, partial curve]

Question: Which AC50 does the source give for CCCc1ccc(OCc2ccc(C(=O)Nc3ccccc3C(=O)OC)o2)cc1 here?
Answer: 2820 nM [falling, single point]

Question: With O=C(NC1CCCCCC1)C1c2ccccc2C(=O)N1C1CC1 (stereo unspecified) as the compound, how does the AC50 read?
Answer: 5010 nM [falling, single point]

Question: With CCOC(=O)N1CCN(C(=O)CCc2c(C)nc3c(c(C)nn3-c3ccc(C)c(C)c3)c2C)CC1 as the compound, how does the AC50 read?
Answer: 3980 nM [rising, partial curve]

Question: Which AC50 does the source give for COc1ccc2c(c1OC)C(=O)N(c1cccc(C)c1)C2=O here?
Answer: 1000 nM [falling, full curve, poor fit]

Question: For O=C(O)CCSc1nnc(-c2ccncc2)n1-c1ccccc1, which AC50 is on record?
Answer: 7.94 nM [falling, full curve, poor fit]

Question: Which AC50 does the source give for CC1CCCC(C)N1NC(=O)c1ccc(Cl)c(S(N)(=O)=O)c1 (stereo unspecified) here?
Answer: 3160 nM [falling, single point]

Question: Which AC50 does the source give for O=C(COC(=O)c1ccc(Br)o1)NCCCc1ccccc1 here?
Answer: 10000 nM [rising, partial curve, poor fit]

Question: With COc1ccc(C/C(N)=N/n2cnnc2)cc1 as the compound, how does the AC50 read?
Answer: 25.1 nM [rising, partial curve, poor fit]

Question: For CCc1sc(N(C(=O)Cc2ccccc2)c2ccccc2)nc1-c1ccccc1, which AC50 is on record?
Answer: 2000 nM [falling, partial curve]

Question: Which AC50 does the source give for CCOC(=O)c1ccc(NS(=O)(=O)c2cc(-c3nnnn3C(C)C)ccc2OC)cc1 here?
Answer: 20 nM [rising, full curve, poor fit]

Question: With C=CCSc1nnc2nc3[nH]c4c(C)cccc4c3nn12 as the compound, how does the AC50 read?
Answer: 63.1 nM [rising, full curve, poor fit]

Question: Which AC50 does the source give for CCn1c(C(=O)N2CCCC(C(=O)O)C2)cc2sccc21 (stereo unspecified) here?
Answer: 31600 nM [falling, single point]

Question: Which AC50 does the source give for CCN(Cc1ccccc1)C(=O)CSc1nc(C)cc(C)c1C#N here?
Answer: 35500 nM [falling, single point]

Question: Which AC50 does the source give for COc1ccc(-c2csc(NC(=O)c3ccco3)n2)cc1 here?
Answer: 631 nM [falling, full curve]

Question: Which AC50 does the source give for CCOC(=O)C1=C(C)N(C)C(C)=C(C(=O)OCC)C1c1ccccc1 here?
Answer: 20 nM [falling, full curve]

Question: For S=C1N(c2ccccc2)C(c2ccccc2)N2CCCN12 (stereo unspecified), which AC50 is on record?
Answer: 251 nM [falling, full curve, poor fit]

Question: Which AC50 does the source give for COc1ccc2c(c1)c(=O)oc1cc3occ(C(C)(C)C)c3cc12 here?
Answer: 25100 nM [rising, partial curve]

Question: With Cc1nc(N=Nc2cc(S(=O)(=O)O)c3cc([N+](=O)[O-])cc(S(=O)(=O)O)c3c2)c(COP(=O)(O)O)c(C=O)c1O as the compound, how does the AC50 read?
Answer: 12600 nM [falling, partial curve, poor fit]

Question: With Cc1noc(C)c1S(=O)(=O)N1CCCC(C(=O)Nc2cccnc2)C1 (stereo unspecified) as the compound, how does the AC50 read?
Answer: 3.16 nM [falling, full curve]

Question: With CCOc1ccc2cc(S(=O)(=O)n3ccnc3C)ccc2c1 as the compound, how does the AC50 read?
Answer: 100 nM [falling, full curve, poor fit]

Question: Which AC50 does the source give for O=C(NCc1ccco1)c1cc2nc(-c3cccs3)cc(C(F)(F)F)n2n1 here?
Answer: 126 nM [rising, full curve, poor fit]

Question: Which AC50 does the source give for C=C(C)COc1ccc(-c2ncncc2Oc2ccc(OC)cc2)c(O)c1 here?
Answer: 12600 nM [falling, partial curve]

Question: Which AC50 does the source give for CCCCNC(=O)c1ccc2c(=O)n(CCCOCC)c(=S)[nH]c2c1 here?
Answer: 39.8 nM [rising, full curve, poor fit]

Question: For NC(=S)c1cc2ccc(O)cc2oc1=O, which AC50 is on record?
Answer: 12600 nM [rising, partial curve]

Question: Which AC50 does the source give for Cc1cccc(N(C(=O)CNC(=O)c2ccco2)C(C(=O)NC2CCCC2)c2ccncc2)c1 (stereo unspecified) here?
Answer: 31600 nM [falling, single point]

Question: For On1onc2c3cc(-c4ccccc4)nc3ccc21, which AC50 is on record?
Answer: 12600 nM [falling, single point]

Question: With COc1ccccc1N1C(=O)CCC1(C#N)c1ccccc1 (stereo unspecified) as the compound, how does the AC50 read?
Answer: 5620 nM [rising, single point]

Question: For O=C(CCS(=O)(=O)c1cc(Br)cc2c1N(C(=O)C1CC1)CC2)NCc1ccco1, which AC50 is on record?
Answer: 14100 nM [falling, partial curve, poor fit]

Question: With Cc1cc(F)ccc1S(=O)(=O)Nc1ccccc1C(=O)Nc1ccc2[nH]c(=O)[nH]c2c1 as the compound, how does the AC50 read?
Answer: 3980 nM [rising, single point]

Question: Which AC50 does the source give for Cc1ccc(C(=O)C2=C(O)C(=O)N(c3ncccn3)C2c2ccc(Cl)cc2)o1 (stereo unspecified) here?
Answer: 12600 nM [rising, partial curve]

Question: Which AC50 does the source give for Cc1nn(-c2ccc(F)cc2)c2sc(C(=O)O)cc12 here?
Answer: 631 nM [falling, single point]

Question: Which AC50 does the source give for Nc1ncnc2c1nc(Sc1ccc(Cl)cc1)n2[C@@H]1O[C@H]2COP(=O)(O)O[C@@H]2[C@H]1O here?
Answer: 3160 nM [falling, single point]

Question: With Cc1ccccc1Cn1c2ccccc2c2cn[nH]c(=O)c21 as the compound, how does the AC50 read?
Answer: 3980 nM [rising, full curve, poor fit]

Question: With COc1cc(N2CCCC2)c(OC)cc1/C=C(/C#N)c1ccc(F)cc1 as the compound, how does the AC50 read?
Answer: 10000 nM [falling, partial curve]

Question: With COc1ccc2cc3[n+](cc2c1OC)CCc1cc2c(cc1-3)OCO2 as the compound, how does the AC50 read?
Answer: 15800 nM [falling, single point]

Question: With Cc1[nH]c2ccccc2c1C(=O)CN1C(=O)NC(C)(c2ccc(Cl)cc2Cl)C1=O (stereo unspecified) as the compound, how does the AC50 read?
Answer: 126 nM [rising, full curve, poor fit]

Question: Which AC50 does the source give for O=C(CSc1nnc(-c2ccco2)n1Cc1ccco1)Nc1ccccc1 here?
Answer: 631 nM [falling, full curve, poor fit]

Question: Which AC50 does the source give for COc1ccc(-c2cc3ccc(OCc4nn[nH]n4)cc3oc2=O)cc1 here?
Answer: 28200 nM [rising, partial curve]

Question: For COC(=O)c1scc(C)c1NC(=O)Nc1ccccc1, which AC50 is on record?
Answer: 2820 nM [falling, full curve, poor fit]

Question: With CC(C)C1Oc2ccccc2N(CC(=O)N(Cc2ccncc2)Cc2ccco2)C1=O (stereo unspecified) as the compound, how does the AC50 read?
Answer: 501 nM [falling, full curve]

Question: With Cc1ccc(S(=O)(=O)NC(C)C(c2cccs2)N2CCN(c3ccccc3)CC2)cc1 (stereo unspecified) as the compound, how does the AC50 read?
Answer: 794 nM [falling, full curve]

Question: With COc1ccc(/C=N/NC(=O)C(=O)NCC2CCCO2)cc1 (stereo unspecified) as the compound, how does the AC50 read?
Answer: 25100 nM [falling, single point]

Question: For CCOC(=O)c1cc(CC)sc1NC(=O)c1ccc(N2CCOCC2)c([N+](=O)[O-])c1, which AC50 is on record?
Answer: 25.1 nM [rising, full curve, poor fit]

Question: With CC(C(=O)N1CCCCC1)n1sc2ccccc2c1=O (stereo unspecified) as the compound, how does the AC50 read?
Answer: 3980 nM [falling, partial curve]

Question: For Cc1ccc2c(c1)N(CC(=O)N(Cc1ccccn1)Cc1ccco1)C(=O)C(C(C)C)O2 (stereo unspecified), which AC50 is on record?
Answer: 158 nM [falling, full curve]

Question: With c1ccc2[nH]c(CSc3nc4ccccc4s3)nc2c1 as the compound, how does the AC50 read?
Answer: 50.1 nM [rising, full curve]

Question: Which AC50 does the source give for COc1ccc(-c2cc(C(=O)Nc3c(C)nn(Cc4ccccc4Cl)c3C)no2)cc1OC here?
Answer: 1000 nM [falling, full curve, poor fit]

Question: For COc1ccccc1CNc1n[nH]c(NCc2ccccc2OC)n1, which AC50 is on record?
Answer: 12600 nM [falling, partial curve, poor fit]

Question: For CCCCN(CCCC)CC1OCc2ccccc2CO1, which AC50 is on record?
Answer: 1000 nM [falling, partial curve]

Question: For Cn1cccc1C(=O)NC(=O)COC(=O)Cc1coc2ccc3ccccc3c12, which AC50 is on record?
Answer: 63.1 nM [rising, full curve, poor fit]

Question: For O=C(O)COc1ccc(S(=O)(=O)NCCc2ccccc2)cc1, which AC50 is on record?
Answer: 5620 nM [falling, full curve]

Question: Which AC50 does the source give for NS(=O)(=O)c1ccc(CCNc2nc(CN3CCCCC3)nc3sc4c(c23)CCC4)cc1 here?
Answer: 10 nM [falling, full curve, poor fit]

Question: Which AC50 does the source give for N[C@H](C(=O)O)c1cccc(O)c1 here?
Answer: 15.8 nM [falling, full curve, poor fit]

Question: Which AC50 does the source give for Cc1ccc(N=c2ssnc2Cl)cc1 here?
Answer: 20 nM [rising, full curve, poor fit]

Question: With O=S(=O)(Nc1nc2ccccc2[nH]1)c1ccc2ccccc2c1 as the compound, how does the AC50 read?
Answer: 2510 nM [falling, single point]

Question: For Clc1ccc(-c2csc(N3CCN(c4ccccc4)CC3)n2)cc1, which AC50 is on record?
Answer: 20000 nM [rising, single point]

Question: With CC(C)(C)OC(=O)N1CCC[C@H]1c1nnc(SCc2ccccc2F)o1 as the compound, how does the AC50 read?
Answer: 5010 nM [falling, single point]

Question: With c1ccc(Sc2cnc3ccccc3n2)cc1 as the compound, how does the AC50 read?
Answer: 14100 nM [rising, single point]
